PMC4895818
These are yes or no findings as the source states them, for the method shown. Binding seen in cells or lysates may run through a third protein. A result given as binding can be weak or reduced; the word gives no strength. For part of these data: Sequences can lack the tags named with a protein.

Key:
[1] = target: T1, 3 × Flag-PsAvh262 (Phytophthora sojae) (UniProt E0W5H5); test: co-IP; co-expression in N. benthamiana; 3 × Flag-PsAvh262 or mutant precipitated with anti-Flag agarose beads; co-precipitate detected by anti-GFP or anti-RFP blot
T1 sequence: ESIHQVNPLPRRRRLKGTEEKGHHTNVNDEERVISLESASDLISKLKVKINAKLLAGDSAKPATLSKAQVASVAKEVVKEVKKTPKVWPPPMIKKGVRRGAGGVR

[2] = target: T2, GST-PsAvh262 (Phytophthora sojae) (UniProt E0W5H5); test: pull-down; semi-in vivo GST pull-down: GST-PsAvh262 from E. coli BL21 on glutathione-agarose beads, washed with PBS; extract of N. benthamiana leaves expressing GmBiP1-RFP or RFP added, 4 °C, 2 h; six washes with PBST; anti-RFP blot; only the target purified
T2 sequence: T1 sequence

[3] = target: T3, GFP-PsAvh262 (N-terminal GFP-tagged PsAvh262 without the N-terminal secretion signal peptide 1-18 aa) (Phytophthora sojae) (UniProt E0W5H5); test: co-IP; co-expression in N. benthamiana; 2 ml total protein extract with 20 ul GFP-Trap_A beads, 4 °C, 2 h; blot for RFP
T3 sequence: T1 sequence

[4] = target: T4, PsAvh262 (construct of the experiment with OsBiP3, Supplementary Fig. 6c) (Phytophthora sojae) (UniProt E0W5H5); test: co-IP; PsAvh262 with OsBiP3, Supplementary Fig. 6c; named among the Co-IP assays; constructs and beads not given
T4 sequence: T1 sequence

[5] = target: T5, PsAvh262-YFPN without its signal peptide (Phytophthora sojae) (UniProt E0W5H5); test: split reporter; BiFC: PsAvh262-YFPN and SP-YFPC-GmBiP1-HDEL co-expressed in N. benthamiana by agroinfiltration; YFP fluorescence by confocal microscopy
T5 sequence: T1 sequence

GFP-GmBiP1 (GFP attached to the N terminus of the signal peptide) (soybean (Glycine max))
binding [1]: binds

GFP-GmBiP2 (soybean (Glycine max))
binding [1]: binds

GFP-GmBiP3 (soybean (Glycine max))
binding [1]: binds

GFP-GmBiP4 (GFP attached to the N terminus of the signal peptide) (soybean (Glycine max))
binding [1]: binds

GmBiP1-RFP (RFP fused to the C-terminal HDEL sequence of GmBiP1) (soybean (Glycine max))
binding [1]: binds
binding [2]: binds

NbBiP5-RFP (N. benthamiana)
binding [3]: binds

OsBiP3 from rice (Os02g02410)
binding [4]: binds

SP-YFPC-GmBiP1-HDEL (soybean (Glycine max))
binding [5]: binds
